The experiment concerns the target T1, endogenous caspase-11 of BMDMs (mouse (endogenous in BMDMs)) (UniProt P70343).
T1 sequence: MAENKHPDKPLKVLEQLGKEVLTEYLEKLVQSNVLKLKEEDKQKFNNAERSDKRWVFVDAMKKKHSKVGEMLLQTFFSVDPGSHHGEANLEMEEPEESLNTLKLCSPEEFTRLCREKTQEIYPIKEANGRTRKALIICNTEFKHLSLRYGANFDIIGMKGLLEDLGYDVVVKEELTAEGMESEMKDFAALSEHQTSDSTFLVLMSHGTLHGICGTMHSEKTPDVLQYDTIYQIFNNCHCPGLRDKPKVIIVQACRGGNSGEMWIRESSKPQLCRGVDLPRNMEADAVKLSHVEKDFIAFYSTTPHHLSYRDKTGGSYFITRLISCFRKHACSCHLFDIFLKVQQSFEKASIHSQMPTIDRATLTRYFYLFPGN
Put plainly: co-IP; endogenous proteins; BMDMs stimulated for 6 h with or without LPS, whole cell lysates immunoprecipitated with caspase-11 antibody, blot with anti-S1P antibody.

These are yes or no findings as the source states them, for the method shown. Binding seen in cells or lysates may run through a third protein. Some binding calls cover weakened binding; strength is not graded here.

B1: endogenous pro-S1P of BMDMs (enzyme, UniProt Q9WTZ2 23-1052)
chain: DRLGTRALEKAPCPSCSHLTLKVEFSSTVVEYEYIVAFNGYFTAKARNSFISSALKSSEVENWRIIPRNNPSSDYPSDFEVIQIKEKQKAGLLTLEDHPNIKRVTPQRKVFRSLKFAESNPIVPCNETRWSQKWQSSRPLKRASLSLGSGFWHATGRHSSRRLLRAIPRQVAQTLQADVLWQMGYTGANVRVAVFDTGLSEKHPHFKNVKERTNWTNERTLDDGLGHGTFVAGVIASMRECQGFAPDAELHIFRVFTNNQVSYTSWFLDAFNYAILKKMDVLNLSIGGPDFMDHPFVDKVWELTANNVIMVSAIGNDGPLYGTLNNPADQMDVIGVGGIDFEDNIARFSSRGMTTWELPGGYGRVKPDIVTYGAGVRGSGVKGGCRALSGTSVASPVVAGAVTLLVSTVQKRELVNPASVKQALIASARRLPGVNMFEQGHGKLDLLRAYQILSSYKPQASLSPSYIDLTECPYMWPYCSQPIYYGGMPTIVNVTILNGMGVTGRIVDKPEWRPYLPQNGDNIEVAFSYSSVLWPWSGYLAISISVTKKAASWEGIAQGHIMITVASPAETELHSGAEHTSTVKLPIKVKIIPTPPRSKRVLWDQYHNLRYPPGYFPRDNLRMKNDPLDWNGDHVHTNFRDMYQHLRSMGYFVEVLGAPFTCFDATQYGTLLLVDSEEEYFPEEIAKLRRDVDNGLSLVIFSDWYNTSVMRKVKFYDENTRQWWMPDTGGANIPALNELLSVWNMGFSDGLYEGEFVLANHDMYYASGCSIAKFPEDGVVITQTFKDQGLEVLKQETAVVENVPILGLYQIPSEGGGRIVLYGDSNCLDDSHRQKDCFWLLDALLQYTSYGVTPPSLSHSGNRQRPPSGAGLAPPERMEGNHLHRYSKVLEAHLGDPKPRPLPACPHLSWAKPQPLNETAPSNLWKHQKLLSIDLDKVVLPNFRSNRPQVRPLSPGESGAWDIPGGIMPGRYNQEVGQTIPVFAFLGAMVALAFFVVQISKAKSRPKRRRPRAKRPQLAQQAHPARTPSV
With B1, the binding result is on record as “binds”.

The values above are taken from publication PMC9912839.
